These are yes or no findings as the source states them, for the method shown. Binding seen in cells or lysates may run through a third protein. A yes stands for co-enrichment or nearness to the bait. Other partners may have been found. Tags and fused reporters may be left off the sequences shown.
What was measured:
Assay in all cases: affinity purification with mass spectrometry; protein extracts of flower tissue of transgenic plants; anti-Flag M1 agarose, eluted with 3x Flag peptides, SDS-PAGE, silver staining, in-gel trypsin digestion, mass spectrometry; wild-type control
[1] = target: T1, CHR27-Myc (Arabidopsis) (UniProt Q9LHE4)
T1 sequence: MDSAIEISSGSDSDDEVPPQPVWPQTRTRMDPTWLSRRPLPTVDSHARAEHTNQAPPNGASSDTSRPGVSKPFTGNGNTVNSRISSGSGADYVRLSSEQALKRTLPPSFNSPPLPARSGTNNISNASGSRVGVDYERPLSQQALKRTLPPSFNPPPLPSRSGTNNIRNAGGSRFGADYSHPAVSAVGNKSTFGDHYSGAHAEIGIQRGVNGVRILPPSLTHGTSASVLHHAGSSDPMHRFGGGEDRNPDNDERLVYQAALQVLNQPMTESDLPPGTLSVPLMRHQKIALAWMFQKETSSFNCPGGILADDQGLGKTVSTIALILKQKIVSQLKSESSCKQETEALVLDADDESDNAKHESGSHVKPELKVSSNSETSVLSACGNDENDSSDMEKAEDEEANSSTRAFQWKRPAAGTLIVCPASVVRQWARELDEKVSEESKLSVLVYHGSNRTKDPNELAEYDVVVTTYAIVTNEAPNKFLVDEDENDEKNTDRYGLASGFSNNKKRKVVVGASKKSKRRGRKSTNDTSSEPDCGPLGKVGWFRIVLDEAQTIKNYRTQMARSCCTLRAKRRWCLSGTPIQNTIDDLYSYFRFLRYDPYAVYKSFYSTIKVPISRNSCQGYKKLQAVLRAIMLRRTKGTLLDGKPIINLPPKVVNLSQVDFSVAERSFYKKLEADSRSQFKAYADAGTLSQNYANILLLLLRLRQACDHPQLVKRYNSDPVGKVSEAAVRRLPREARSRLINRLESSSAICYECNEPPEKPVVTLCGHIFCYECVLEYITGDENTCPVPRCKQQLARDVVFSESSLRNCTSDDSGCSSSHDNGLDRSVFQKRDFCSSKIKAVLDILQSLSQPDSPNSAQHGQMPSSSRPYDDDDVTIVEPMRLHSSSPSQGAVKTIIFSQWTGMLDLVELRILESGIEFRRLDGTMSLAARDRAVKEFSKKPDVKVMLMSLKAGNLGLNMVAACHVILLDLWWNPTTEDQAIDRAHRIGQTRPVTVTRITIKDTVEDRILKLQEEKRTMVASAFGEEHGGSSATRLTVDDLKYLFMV

[2] = target: T2, SUVR1-Flag (Arabidopsis) (UniProt Q946J2)
T2 sequence: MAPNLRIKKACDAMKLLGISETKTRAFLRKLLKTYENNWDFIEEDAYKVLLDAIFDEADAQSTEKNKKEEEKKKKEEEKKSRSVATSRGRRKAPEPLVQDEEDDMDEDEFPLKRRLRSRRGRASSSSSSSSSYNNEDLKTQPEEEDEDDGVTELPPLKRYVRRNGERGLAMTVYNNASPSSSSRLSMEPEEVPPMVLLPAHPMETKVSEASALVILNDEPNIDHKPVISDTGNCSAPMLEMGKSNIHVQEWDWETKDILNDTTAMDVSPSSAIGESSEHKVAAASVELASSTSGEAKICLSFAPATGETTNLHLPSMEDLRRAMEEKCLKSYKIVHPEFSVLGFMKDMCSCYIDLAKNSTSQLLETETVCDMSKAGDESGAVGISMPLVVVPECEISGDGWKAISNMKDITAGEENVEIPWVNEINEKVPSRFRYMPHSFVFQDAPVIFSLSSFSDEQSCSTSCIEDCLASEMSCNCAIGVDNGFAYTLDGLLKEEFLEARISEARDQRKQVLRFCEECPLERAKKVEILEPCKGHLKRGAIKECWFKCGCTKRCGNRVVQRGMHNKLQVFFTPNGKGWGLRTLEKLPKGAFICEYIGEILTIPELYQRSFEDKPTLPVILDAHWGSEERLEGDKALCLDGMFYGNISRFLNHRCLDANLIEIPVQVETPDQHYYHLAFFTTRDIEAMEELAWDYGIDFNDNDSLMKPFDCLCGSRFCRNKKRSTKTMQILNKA

[3] = target: T3, CHR19-Myc (Arabidopsis) (UniProt Q9ZUL5)
T3 sequence: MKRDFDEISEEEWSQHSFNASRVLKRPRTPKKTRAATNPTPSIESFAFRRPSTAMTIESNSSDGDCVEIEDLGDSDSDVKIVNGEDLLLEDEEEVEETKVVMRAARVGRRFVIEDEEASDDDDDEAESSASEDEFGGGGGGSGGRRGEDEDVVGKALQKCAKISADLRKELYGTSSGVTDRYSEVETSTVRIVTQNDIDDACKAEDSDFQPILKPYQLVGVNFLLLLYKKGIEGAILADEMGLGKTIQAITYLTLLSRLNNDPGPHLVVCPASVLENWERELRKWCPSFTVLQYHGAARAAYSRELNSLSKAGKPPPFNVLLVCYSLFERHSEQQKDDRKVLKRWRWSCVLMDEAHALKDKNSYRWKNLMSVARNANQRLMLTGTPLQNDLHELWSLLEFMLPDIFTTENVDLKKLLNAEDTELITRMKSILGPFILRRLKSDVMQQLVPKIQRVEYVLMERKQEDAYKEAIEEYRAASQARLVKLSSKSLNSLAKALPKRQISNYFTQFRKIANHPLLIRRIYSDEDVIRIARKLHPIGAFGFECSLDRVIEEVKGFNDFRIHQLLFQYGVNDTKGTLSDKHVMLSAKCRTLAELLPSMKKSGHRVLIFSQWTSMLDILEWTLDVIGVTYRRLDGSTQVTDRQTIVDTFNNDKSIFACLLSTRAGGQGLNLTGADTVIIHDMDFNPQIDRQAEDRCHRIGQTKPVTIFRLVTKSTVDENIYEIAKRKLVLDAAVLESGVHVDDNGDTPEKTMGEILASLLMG

Measured: binding

B1: SUVR2 (protein, UniProt Q9FNC7 1-717)
chain: MAPNLHIKKAFMAMRAMGIEDARVKPVLKNLLALYEKNWELIAEDNYRVLADAIFDSHEDQAIQESEEKKADEVKEDEGCAAEVDRGKKKLHESIEDDEDVMAESDRPLKRLRRRGEGGSALASPSLGSPTLEGPSINDEENAPILLPYHPVPIENDHDAGELILTKVEPITNMPLSSIPDSVDRGDSSMLEIDKSNGHVEEKAGETVSTADGTTNDISPTTVARFSDHKLAATIEEPPALELASSASGEVKINLSFAPATGGSNPHLPSMEELRRAMEEKCLRSYKILDPNFSVLGFMNDICSCYLDLATNGRDSANQLPKNLPFVTTNIDALKKSAARMAYTSQASNDVVEICSNEHMRDAENGAVGDSMALVVVPECQLSADEWRLISSVGDISLGKETVEIPWVNEVNDKVPPVFHYIAQSLVYQDAAVKFSLGNIRDDQCCSSCCGDCLAPSMACRCATAFNGFAYTVDGLLQEDFLEQCISEARDPRKQMLLYCKECPLEKAKKEVILEPCKGHLKRKAIKECWSKCGCMKNCGNRVVQQGIHNKLQVFFTPNGRGWGLRTLEKLPKGAFVCELAGEILTIPELFQRISDRPTSPVILDAYWGSEDISGDDKALSLEGTHYGNISRFINHRCLDANLIEIPVHAETTDSHYYHLAFFTTREIDAMEELTWDYGVPFNQDVFPTSPFHCQCGSDFCRVRKQISKGKNVKKRA
binds: all assays above

— article PMC4260354
